Data taken from paper PMC6760448, “The DRS–AIMP2–EPRS subcomplex acts as a pivot in the multi-tRNA synthetase complex” (IUCrJ, 2019).

Chains of the proteins cited; added tags and fusions are not shown. Lines headed by an entry give the natural chain unless they say otherwise; changes in a name come on top.
UniProt P56192: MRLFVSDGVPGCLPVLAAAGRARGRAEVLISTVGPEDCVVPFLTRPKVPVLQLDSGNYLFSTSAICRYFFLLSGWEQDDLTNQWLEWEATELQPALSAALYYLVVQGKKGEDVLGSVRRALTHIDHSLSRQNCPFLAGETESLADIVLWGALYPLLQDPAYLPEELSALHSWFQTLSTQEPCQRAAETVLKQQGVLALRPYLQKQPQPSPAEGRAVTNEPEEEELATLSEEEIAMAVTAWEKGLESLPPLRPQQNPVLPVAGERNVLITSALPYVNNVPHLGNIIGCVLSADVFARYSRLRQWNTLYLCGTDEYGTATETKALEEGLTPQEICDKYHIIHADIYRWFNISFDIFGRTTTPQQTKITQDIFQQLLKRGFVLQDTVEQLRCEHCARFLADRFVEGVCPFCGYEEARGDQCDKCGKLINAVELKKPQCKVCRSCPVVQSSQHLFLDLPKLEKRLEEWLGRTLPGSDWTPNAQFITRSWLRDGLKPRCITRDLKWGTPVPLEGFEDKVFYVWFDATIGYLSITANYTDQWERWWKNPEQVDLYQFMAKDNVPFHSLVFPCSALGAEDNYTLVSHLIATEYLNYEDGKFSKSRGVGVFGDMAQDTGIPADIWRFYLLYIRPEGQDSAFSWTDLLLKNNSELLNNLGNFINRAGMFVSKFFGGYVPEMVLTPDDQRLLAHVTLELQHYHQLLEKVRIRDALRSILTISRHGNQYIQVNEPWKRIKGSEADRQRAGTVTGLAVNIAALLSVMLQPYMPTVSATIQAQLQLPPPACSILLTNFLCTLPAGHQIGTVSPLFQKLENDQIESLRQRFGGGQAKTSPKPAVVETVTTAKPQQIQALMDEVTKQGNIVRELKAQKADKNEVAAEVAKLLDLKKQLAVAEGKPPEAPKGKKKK

Target: T1, aminoacyl-tRNA synthetase complex-interacting multifunctional protein 3 (UniProt O43324)
T1 sequence: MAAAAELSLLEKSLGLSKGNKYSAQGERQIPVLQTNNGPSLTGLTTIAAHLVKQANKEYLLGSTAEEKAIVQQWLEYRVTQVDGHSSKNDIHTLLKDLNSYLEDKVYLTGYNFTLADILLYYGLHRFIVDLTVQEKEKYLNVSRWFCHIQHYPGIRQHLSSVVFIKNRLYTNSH
Assay: SEC; separately transformed strains pooled in one culture, proteins met on cell disruption by sonication; His6 affinity (HiTrap Chelating HP), then HiLoad 16/600 Superdex 200 pg in 50 mM HEPES–NaOH pH 8.0, 200 mM NaCl, 5 mM DTT, 1% glycerol; SDS–PAGE of the highest peak

## GST domain of methionyl-tRNA synthetase (from UniProt P56192) (domain or fragment)
  binding: binds

No constants are given. Whether binding was seen depends on the method and setting. A result given as binding can be weak or reduced; the word gives no strength.
